The assay deals with T1, Metastasis suppressor protein 1 (Mtss1-WT-myc, from pCMV-Mtss1-WT-myc) (mouse) (UniProt Q8R1S4).
T1 sequence: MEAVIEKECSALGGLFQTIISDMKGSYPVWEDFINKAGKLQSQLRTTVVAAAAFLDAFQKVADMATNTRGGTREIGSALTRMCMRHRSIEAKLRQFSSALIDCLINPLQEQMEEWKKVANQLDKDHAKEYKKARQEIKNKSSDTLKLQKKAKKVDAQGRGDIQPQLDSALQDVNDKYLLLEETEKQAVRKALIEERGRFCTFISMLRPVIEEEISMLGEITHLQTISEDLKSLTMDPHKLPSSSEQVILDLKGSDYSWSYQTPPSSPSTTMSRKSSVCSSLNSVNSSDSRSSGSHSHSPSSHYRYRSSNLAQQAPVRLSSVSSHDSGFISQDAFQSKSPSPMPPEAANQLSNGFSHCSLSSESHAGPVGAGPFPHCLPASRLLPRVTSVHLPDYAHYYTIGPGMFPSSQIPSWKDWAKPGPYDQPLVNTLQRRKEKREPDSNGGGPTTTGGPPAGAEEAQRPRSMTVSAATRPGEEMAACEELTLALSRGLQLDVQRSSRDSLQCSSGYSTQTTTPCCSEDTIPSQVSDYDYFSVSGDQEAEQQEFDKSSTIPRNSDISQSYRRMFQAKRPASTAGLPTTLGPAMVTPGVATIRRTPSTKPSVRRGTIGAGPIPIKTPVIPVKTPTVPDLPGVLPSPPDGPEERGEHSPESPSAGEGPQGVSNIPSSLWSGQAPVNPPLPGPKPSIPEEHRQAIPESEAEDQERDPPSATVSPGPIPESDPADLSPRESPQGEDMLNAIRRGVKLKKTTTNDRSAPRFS
Put plainly: co-IP; Lysate of HEK293T cells co-transfected with pCMV-PKCγ-WT-GFP and pCMV-Mtss1-WT-myc; anti-myc antibody (mouse IgG as control) cross-linked to protein A/G agarose (Pierce Crosslink IP kit); 2000 μg protein, overnight at 4 °C; acidic elution; Western blot. A general note: A western blot detects proteins with antibodies after separation by electrophoresis.

These are yes or no findings as the source states them, for the method shown. Binding seen in cells or lysates may run through a third protein. Some binding calls cover weakened binding; strength is not graded here. Where a sequence is shown, tags or fusion partners need not be part of it.

Turning to “Protein kinase C gamma (PKCγ-WT-GFP, from pCMV-PKCγ-WT-GFP) (from UniProt P63318 1-697) (enzyme)”, the binding result is “binds weakly”.

The values are drawn from paper PMC12647342.
